Measured values from the supplement of paper PMC11732987, “Enantioselective OTUD7B fragment discovery through chemoproteomics screening and high-throughput optimisation” (Communications Chemistry, 2025).
Some of the results follow. The data scatter; read single values as rough.

Amino acid sequences for entries named in this document (tags omitted). A change or cut given only in a name is not applied to a line headed by its entry.
UniProt Q86XA9: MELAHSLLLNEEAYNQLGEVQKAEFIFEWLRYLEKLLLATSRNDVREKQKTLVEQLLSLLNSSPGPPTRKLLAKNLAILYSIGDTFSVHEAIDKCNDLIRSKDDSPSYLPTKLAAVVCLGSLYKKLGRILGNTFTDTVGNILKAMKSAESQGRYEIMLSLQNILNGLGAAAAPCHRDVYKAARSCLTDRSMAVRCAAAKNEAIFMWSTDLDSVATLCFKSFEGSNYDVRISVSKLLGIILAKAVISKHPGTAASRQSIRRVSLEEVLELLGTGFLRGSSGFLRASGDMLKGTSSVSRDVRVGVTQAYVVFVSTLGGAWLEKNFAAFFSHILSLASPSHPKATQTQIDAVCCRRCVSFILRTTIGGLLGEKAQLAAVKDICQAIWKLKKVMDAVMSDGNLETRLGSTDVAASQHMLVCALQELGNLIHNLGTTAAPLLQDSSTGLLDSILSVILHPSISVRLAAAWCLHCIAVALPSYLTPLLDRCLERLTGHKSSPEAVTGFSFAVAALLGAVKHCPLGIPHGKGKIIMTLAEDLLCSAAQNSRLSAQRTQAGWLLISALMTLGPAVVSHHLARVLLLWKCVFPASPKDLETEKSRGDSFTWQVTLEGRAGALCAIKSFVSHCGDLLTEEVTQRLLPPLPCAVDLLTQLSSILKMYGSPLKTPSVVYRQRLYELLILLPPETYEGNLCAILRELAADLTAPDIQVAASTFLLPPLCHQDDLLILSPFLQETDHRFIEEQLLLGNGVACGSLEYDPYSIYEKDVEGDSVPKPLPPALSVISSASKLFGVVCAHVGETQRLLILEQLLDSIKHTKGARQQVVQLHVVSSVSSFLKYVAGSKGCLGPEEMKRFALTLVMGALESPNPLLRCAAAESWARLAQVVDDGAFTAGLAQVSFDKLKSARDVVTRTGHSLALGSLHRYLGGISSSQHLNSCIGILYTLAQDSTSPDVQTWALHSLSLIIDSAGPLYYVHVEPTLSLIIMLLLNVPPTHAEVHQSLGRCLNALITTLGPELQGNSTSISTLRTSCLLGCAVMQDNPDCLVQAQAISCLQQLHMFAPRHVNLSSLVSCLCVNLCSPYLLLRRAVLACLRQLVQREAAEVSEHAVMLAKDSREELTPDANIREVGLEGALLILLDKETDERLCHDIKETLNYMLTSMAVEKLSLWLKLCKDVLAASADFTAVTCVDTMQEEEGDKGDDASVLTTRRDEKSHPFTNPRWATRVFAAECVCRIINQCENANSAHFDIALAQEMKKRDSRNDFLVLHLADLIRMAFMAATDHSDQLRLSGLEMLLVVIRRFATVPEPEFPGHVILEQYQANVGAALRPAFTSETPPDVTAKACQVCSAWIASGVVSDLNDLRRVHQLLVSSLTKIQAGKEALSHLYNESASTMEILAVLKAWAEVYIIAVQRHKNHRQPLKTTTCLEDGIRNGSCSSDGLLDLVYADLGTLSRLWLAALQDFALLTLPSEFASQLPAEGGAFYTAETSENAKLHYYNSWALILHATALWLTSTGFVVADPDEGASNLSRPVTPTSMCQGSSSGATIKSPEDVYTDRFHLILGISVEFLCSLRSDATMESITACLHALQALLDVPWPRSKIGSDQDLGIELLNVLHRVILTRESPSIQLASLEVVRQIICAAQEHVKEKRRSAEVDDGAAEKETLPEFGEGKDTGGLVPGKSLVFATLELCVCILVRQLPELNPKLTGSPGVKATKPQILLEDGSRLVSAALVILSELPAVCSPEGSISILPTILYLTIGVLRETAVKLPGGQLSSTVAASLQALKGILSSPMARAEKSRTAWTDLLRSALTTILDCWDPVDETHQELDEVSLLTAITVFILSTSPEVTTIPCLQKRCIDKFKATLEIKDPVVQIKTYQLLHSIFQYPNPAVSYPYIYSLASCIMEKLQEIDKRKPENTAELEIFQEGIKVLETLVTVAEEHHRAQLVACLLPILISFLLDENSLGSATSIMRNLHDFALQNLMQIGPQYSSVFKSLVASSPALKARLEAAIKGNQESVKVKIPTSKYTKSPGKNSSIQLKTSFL
UniProt Q9H6D7: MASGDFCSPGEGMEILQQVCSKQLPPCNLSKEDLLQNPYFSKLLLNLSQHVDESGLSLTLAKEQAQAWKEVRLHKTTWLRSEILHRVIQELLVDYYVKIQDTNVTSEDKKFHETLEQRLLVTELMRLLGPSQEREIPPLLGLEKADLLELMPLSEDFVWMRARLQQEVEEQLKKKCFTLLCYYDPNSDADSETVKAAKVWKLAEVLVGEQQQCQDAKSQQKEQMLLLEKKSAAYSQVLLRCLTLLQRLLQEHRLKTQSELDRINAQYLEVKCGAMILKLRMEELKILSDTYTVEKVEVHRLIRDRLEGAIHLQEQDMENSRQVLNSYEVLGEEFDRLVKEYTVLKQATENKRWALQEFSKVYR
UniProt Q86YM7: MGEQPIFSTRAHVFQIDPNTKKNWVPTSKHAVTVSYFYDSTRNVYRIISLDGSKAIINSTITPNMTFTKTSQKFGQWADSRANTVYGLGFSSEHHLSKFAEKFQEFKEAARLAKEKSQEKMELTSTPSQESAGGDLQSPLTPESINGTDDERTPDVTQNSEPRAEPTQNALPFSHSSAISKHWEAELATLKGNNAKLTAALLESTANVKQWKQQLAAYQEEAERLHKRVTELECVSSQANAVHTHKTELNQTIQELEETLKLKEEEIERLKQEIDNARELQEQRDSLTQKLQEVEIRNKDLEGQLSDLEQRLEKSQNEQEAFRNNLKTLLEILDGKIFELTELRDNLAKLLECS
UniProt Q969Y2: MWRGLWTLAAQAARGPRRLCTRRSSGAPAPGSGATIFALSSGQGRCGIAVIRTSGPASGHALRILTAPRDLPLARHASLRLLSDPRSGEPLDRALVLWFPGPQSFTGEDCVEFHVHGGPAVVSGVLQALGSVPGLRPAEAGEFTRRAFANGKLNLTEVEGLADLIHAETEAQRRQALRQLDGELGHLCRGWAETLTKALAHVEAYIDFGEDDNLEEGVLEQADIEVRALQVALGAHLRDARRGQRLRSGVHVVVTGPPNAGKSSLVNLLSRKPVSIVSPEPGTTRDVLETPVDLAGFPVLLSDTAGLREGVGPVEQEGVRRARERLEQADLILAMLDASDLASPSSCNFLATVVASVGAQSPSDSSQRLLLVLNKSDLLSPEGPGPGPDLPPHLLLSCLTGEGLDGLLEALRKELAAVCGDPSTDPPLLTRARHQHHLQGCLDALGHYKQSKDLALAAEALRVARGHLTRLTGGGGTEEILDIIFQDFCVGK
UniProt P19367: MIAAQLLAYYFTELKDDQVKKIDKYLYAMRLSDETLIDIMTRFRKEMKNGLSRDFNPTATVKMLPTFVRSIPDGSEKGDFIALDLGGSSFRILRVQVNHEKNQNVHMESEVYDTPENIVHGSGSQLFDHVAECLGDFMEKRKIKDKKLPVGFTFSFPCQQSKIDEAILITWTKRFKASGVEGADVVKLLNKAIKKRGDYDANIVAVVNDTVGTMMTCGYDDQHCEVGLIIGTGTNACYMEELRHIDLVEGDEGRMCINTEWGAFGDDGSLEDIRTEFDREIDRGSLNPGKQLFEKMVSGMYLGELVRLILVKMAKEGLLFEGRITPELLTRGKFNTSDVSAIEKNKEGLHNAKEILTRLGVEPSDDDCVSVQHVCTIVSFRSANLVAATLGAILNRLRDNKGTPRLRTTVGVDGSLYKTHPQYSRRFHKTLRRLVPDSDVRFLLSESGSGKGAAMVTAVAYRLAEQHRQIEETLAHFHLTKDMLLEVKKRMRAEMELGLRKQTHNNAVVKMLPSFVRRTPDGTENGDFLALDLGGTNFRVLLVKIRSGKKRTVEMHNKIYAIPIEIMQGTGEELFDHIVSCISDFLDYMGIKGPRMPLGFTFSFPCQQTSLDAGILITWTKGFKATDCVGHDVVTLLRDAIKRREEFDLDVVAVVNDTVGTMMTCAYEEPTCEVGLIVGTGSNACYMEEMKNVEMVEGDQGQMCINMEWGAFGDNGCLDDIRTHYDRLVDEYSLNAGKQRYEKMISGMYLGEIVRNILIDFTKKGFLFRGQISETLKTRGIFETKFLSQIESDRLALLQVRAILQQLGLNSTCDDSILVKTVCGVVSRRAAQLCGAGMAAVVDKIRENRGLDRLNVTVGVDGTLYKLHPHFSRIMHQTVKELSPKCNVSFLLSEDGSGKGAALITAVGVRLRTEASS
UniProt Q7Z4Q2: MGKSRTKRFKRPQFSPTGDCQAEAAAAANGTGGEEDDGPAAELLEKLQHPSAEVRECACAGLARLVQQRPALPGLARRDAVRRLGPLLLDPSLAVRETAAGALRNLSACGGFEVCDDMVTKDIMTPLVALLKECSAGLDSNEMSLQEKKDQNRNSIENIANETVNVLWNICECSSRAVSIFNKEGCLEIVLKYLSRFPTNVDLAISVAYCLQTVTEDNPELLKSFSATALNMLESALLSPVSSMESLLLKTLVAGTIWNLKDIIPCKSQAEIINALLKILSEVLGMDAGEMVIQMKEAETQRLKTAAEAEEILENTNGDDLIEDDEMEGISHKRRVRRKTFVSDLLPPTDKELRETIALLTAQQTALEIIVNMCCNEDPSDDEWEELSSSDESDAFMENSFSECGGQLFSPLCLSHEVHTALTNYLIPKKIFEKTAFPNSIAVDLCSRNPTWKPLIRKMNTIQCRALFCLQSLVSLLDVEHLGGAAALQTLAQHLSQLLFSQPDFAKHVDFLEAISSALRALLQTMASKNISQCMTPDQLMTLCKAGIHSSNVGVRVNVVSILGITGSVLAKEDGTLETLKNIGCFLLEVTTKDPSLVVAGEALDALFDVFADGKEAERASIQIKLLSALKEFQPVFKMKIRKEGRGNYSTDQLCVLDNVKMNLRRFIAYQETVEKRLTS
UniProt Q8WUA4: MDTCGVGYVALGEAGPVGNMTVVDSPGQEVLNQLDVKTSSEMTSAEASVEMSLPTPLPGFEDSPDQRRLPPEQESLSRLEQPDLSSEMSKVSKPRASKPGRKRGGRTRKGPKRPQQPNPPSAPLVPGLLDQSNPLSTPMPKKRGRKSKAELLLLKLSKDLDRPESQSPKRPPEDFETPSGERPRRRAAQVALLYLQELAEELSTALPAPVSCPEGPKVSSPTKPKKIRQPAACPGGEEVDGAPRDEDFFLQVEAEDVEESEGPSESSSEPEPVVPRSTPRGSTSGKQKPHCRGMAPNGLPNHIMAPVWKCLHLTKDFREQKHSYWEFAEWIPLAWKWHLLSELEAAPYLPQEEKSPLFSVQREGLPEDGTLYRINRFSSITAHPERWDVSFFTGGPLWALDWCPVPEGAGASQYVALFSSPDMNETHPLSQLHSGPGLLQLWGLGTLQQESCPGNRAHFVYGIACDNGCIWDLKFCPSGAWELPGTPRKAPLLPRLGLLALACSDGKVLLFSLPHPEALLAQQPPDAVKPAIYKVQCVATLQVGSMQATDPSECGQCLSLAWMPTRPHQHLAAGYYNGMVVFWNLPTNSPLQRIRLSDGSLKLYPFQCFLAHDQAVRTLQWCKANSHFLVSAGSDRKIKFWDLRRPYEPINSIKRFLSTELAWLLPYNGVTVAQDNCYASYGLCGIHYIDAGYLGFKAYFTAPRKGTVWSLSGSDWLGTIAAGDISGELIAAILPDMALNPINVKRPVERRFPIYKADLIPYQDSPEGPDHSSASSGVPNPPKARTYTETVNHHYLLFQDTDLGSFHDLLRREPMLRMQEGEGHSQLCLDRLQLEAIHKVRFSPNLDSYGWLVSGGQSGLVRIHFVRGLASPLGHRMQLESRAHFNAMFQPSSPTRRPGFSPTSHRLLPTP
UniProt Q9UKN8: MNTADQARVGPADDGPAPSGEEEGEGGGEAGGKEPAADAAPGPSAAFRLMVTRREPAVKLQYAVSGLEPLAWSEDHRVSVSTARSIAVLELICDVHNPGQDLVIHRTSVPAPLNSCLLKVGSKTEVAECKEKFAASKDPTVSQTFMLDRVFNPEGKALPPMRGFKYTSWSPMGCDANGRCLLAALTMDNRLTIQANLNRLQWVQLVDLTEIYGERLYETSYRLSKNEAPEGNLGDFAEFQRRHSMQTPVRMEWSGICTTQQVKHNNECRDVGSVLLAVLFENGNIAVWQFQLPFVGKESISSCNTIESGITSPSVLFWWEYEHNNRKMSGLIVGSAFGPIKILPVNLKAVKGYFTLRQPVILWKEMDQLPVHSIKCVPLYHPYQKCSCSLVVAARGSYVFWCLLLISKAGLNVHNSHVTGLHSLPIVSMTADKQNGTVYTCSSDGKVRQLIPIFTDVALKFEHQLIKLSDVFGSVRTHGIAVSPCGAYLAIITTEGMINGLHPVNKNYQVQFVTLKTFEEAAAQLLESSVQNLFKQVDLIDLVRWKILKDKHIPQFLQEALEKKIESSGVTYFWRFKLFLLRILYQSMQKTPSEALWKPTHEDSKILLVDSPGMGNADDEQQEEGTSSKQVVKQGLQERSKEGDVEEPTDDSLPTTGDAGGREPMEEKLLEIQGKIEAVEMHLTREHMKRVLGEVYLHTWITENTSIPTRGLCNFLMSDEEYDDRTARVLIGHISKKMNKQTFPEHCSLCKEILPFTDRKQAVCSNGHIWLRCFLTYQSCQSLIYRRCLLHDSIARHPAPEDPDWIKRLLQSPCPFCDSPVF

compound: ClCC(=O)N[C@H]1CCCc2ccccc12; assay: log2 mean competition ratio of IA-DTB cysteine labelling (DMSO/compound) (log2 ratio); higher = stronger cysteine engagement by compound; conditions: 50 µM; treatment time: 4 h; cell line lysate: HEK293T
Description: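 IA-DTB competitive cysteine chemoproteomics in HEK293T RIPA lysate. Lysates were treated with compound 29 or 30 at 50 or 200 µM for 4 h, then IA-DTB (500 µM, 1 h), trypsin-digested, NeutrAvidin-enriched and analysed by diaPASEF. Competition ratio = intensity DMSO / intensity compound (n=4 treated, n=64 DMSO); binding: mean log2 CR ≥ 1 and p ≤ 0.05 plus QC filters. Target is the cysteine site.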

**Q.** For HEATR5A C614 (UniProt Q86XA9), which “log2 mean competition ratio” value is on record?
**A.** 0.31

**Q.** Which “log2 mean competition ratio” value does the source give for HAUS4 C272 (UniProt Q9H6D7) here?
**A.** -0.127

**Q.** Which “log2 mean competition ratio” value does the source give for HEATR5A C841 (UniProt Q86XA9) here?
**A.** -0.281

**Q.** For HOMER1 C234 (UniProt Q86YM7), which “log2 mean competition ratio” value is on record?
**A.** 0.175

**Q.** For GTPBP1 C313 (UniProt O00178), which “log2 mean competition ratio” value is on record?
**A.** 0.0526

**Q.** HNRNPM C676 was tested. Which “log2 mean competition ratio” value did it give?
**A.** -0.0754

**Q.** With HELB C60 (UniProt Q8NG08) as the target, how does the “log2 mean competition ratio” value read?
**A.** -0.285

**Q.** For GTPBP3 C46 (UniProt Q969Y2), which “log2 mean competition ratio” value is on record?
**A.** -0.0183

**Q.** How did the “log2 mean competition ratio” value turn out when HK1 C823 (UniProt P19367) was run?
**A.** 0.481

**Q.** For HEATR3 C186 (UniProt Q7Z4Q2), which “log2 mean competition ratio” value is on record?
**A.** 0.0146

**Q.** For GTF3C2 C503 (UniProt Q8WUA4), which “log2 mean competition ratio” value is on record?
**A.** -0.328

**Q.** HDAC7 C904 (UniProt Q8WUI4) was tested. Which “log2 mean competition ratio” value did it give?
**A.** -0.215

**Q.** How did the “log2 mean competition ratio” value turn out when HECTD4 C1084 was run?
**A.** -0.295

**Q.** GTF3C4 C174 (UniProt Q9UKN8) was tested. Which “log2 mean competition ratio” value did it give?
**A.** 0.827

same assay, conditions: 200 µM; treatment time: 4 h; cell line lysate: HEK293T

**Q.** With HEATR5A C614 (UniProt Q86XA9) as the target, how does the “log2 mean competition ratio” value read?
**A.** 0.0689

**Q.** How did the “log2 mean competition ratio” value turn out when HAUS4 C272 (UniProt Q9H6D7) was run?
**A.** 0.0581

**Q.** How did the “log2 mean competition ratio” value turn out when HEATR5A C841 (UniProt Q86XA9) was run?
**A.** -0.333

**Q.** HOMER1 C234 (UniProt Q86YM7) was tested. Which “log2 mean competition ratio” value did it give?
**A.** -0.191

**Q.** With GTPBP1 C313 (UniProt O00178) as the target, how does the “log2 mean competition ratio” value read?
**A.** -0.251

**Q.** For HNRNPM C676, which “log2 mean competition ratio” value is on record?
**A.** 0.0963

**Q.** How did the “log2 mean competition ratio” value turn out when HELB C60 (UniProt Q8NG08) was run?
**A.** 0.214

**Q.** Which “log2 mean competition ratio” value does the source give for GTPBP3 C46 (UniProt Q969Y2) here?
**A.** 0.244

**Q.** How did the “log2 mean competition ratio” value turn out when HK1 C823 (UniProt P19367) was run?
**A.** -0.0926

**Q.** Which “log2 mean competition ratio” value does the source give for HEATR3 C186 (UniProt Q7Z4Q2) here?
**A.** -0.194

**Q.** For GTF3C2 C503 (UniProt Q8WUA4), which “log2 mean competition ratio” value is on record?
**A.** -0.0068

**Q.** For HDAC7 C904 (UniProt Q8WUI4), which “log2 mean competition ratio” value is on record?
**A.** 0.202

**Q.** With HECTD4 C1084 as the target, how does the “log2 mean competition ratio” value read?
**A.** 0.0376

**Q.** With GTF3C4 C174 (UniProt Q9UKN8) as the target, how does the “log2 mean competition ratio” value read?
**A.** -0.0348
